Data: PubChem BioAssay AID328 (DTP/NCI, 2004)
The list is a part of this screen's results and no random one: it gathers tests that were run many times, whatever their T/C, doses with no T/C, and many T/C values between a quarter and a half above the control. Further doses and runs are listed elsewhere. T/C is the treated group as % of the vehicle group. Some entries give survivors of the animals treated and no T/C: the source files T/C as zero there, which appears to mark a toxic dose or a test without result, not a measured value. Some survivor counts are full or nearly so, which does not show that the dose was tolerated: the source hardly ever lists a survival T/C far under the control, and the zero likely stands for such cases as well. Counts of survivors are from the toxicity check (mostly the fifth day) where no day follows; animals may have died later. Schedules are NCI's codes, read here as Q, the interval in days (D) or hours (H), X, the number of doses. Some entries were tested several times; the values are given in rising order. Where survival is the endpoint, this PubChem deposit counts one and a half times the control or more as active, and values a quarter to a half above the control carry no call in these data; other NCI protocols may use other cut-offs.

Tested on: BDF1 mice, P388 leukemia ip, median survival T/C
Assay: NCI In Vivo Anticancer Drug Screen. Data for tumor model P388 Leukemia (intraperitoneal) in B6D2F1 (BDF1) mice
Conditions: T/C endpoint: median survival time, higher T/C = longer survival
How it was run: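 Reported as T/C, where T is the survival measurement in dosed animals and C the same measurement in vehicle controls.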

[1] = dose: 400.0 mg/kg/injection, schedule: Q01DX001 (ip), vehicle: saline with Tween-80
[2] = dose: 400.0 mg/kg/injection, schedule: Q01DX009 (ip), vehicle: Klucel (hydroxypropylcellulose) (HPC)
[3] = dose: 100.0 mg/kg/injection, schedule: Q01DX009 (ip), vehicle: saline with Tween-80
[4] = dose: 200.0 mg/kg/injection, schedule: Q01DX009 (ip), vehicle: saline with Tween-80
[5] = dose: 400.0 mg/kg/injection, schedule: Q01DX009 (ip), vehicle: saline with Tween-80
[6] = dose: 50.0 mg/kg/injection, schedule: Q04DX003 (ip), vehicle: saline
[7] = dose: 100.0 mg/kg/injection, schedule: Q01DX009 (ip), vehicle: Klucel (hydroxypropylcellulose) (HPC)
[8] = dose: 400.0 mg/kg/injection, schedule: Q04DX003 (ip), vehicle: saline with Tween-80

CCC(CC)OCCN1CCN(CCCN2c3ccccc3Sc3ccc(C(F)(F)F)cc32)CC1 was tested, and the T/C (dose: 20.0 mg/kg/injection, schedule: Q04DX003 (ip), vehicle: saline with Tween-80) was 126 % of control.
Cn1c2ccccc2c(=S)c2ccccc21 was tested, and the survivor count [1] was 6 of 6.
In the case of CCC1CN1CC1CO1 (centres undefined), the T/C (dose: 19.0 mg/kg/injection, schedule: Q04DX003 (ip), vehicle: Klucel (hydroxypropylcellulose) (HPC)) is reported as 133 % of control, the T/C (dose: 45.0 mg/kg/injection, schedule: Q04DX003 (ip), vehicle: Klucel (hydroxypropylcellulose) (HPC)) is reported as 141 % of control and the T/C (dose: 65.0 mg/kg/injection, schedule: Q04DX003 (ip), vehicle: Klucel (hydroxypropylcellulose) (HPC)) is reported as 125 % of control. The T/C (dose: 200.0 mg/kg/injection, schedule: Q04DX003 (ip), vehicle: Klucel (hydroxypropylcellulose) (HPC)) was 131 % of control, the T/C (dose: 265.0 mg/kg/injection, schedule: Q01DX009 (ip), vehicle: Klucel (hydroxypropylcellulose) (HPC)) was 145 % of control and the T/C [2] was 145 % of control.
In the case of CC[NH-].CC[NH-].[I][Pt+2][I], the T/C (dose: 12.5 mg/kg/injection, schedule: Q01DX009 (ip), vehicle: saline) is reported as 142 % of control.
In the case of CN1C(=O)NC(C)(c2cccs2)C1=O (centres undefined), the survivor count (dose: 50.0 mg/kg/injection, schedule: Q01DX009 (ip), vehicle: saline with Tween-80) is reported as 3 of 6, the survivor count [3] is reported as 6 of 6 and the survivor count [4] is reported as 5 of 6. The survivor count [5] was 0 of 6.
With Nc1nncs1 the T/C (dose: 31.3 mg/kg/injection, schedule: Q01DX010 (ip), vehicle: saline) was 127 % of control, the T/C [6] was 136 % of control and the survivor count (dose: 62.5 mg/kg/injection, schedule: Q01DX010 (ip), vehicle: saline) was 6 of 6 and 7 of 7. The T/C (dose: 64.8 mg/kg/injection, schedule: Q04DX003 (ip), vehicle: saline) was 127 % of control, the survivor count (dose: 125.0 mg/kg/injection, schedule: Q01DX010 (ip), vehicle: saline) was 6 of 6 and the survivor count (dose: 250.0 mg/kg/injection, schedule: Q01DX010 (ip), vehicle: saline) was 6 of 6. For the same molecule, the survivor count (dose: 300.0 mg/kg/injection, schedule: Q04DX003 (ip), vehicle: saline) was 1 of 8, the survivor count (dose: 480.0 mg/kg/injection, schedule: Q04DX003 (ip), vehicle: other) was 1 of 8 and the survivor count (dose: 500.0 mg/kg/injection, schedule: Q01DX010 (ip), vehicle: saline) was 4 of 6. For the same molecule, the survivor count (dose: 800.0 mg/kg/injection, schedule: Q04DX003 (ip), vehicle: other) was 0 of 8.
For Cc1cc(O)c2c(c1)OC1(C)CCC3C(C)(C)CCCC34COC2C14 (centres undefined), the survivor count (dose: 100.0 mg/kg/injection, schedule: Q01DX009 (ip), vehicle: other) was 3 of 3.
CCCCCCCCOC(=O)c1[nH]cnc1/N=N\N(C)C was tested, and the survivor count [7] was 6 of 6, the survivor count (dose: 200.0 mg/kg/injection, schedule: Q01DX009 (ip), vehicle: Klucel (hydroxypropylcellulose) (HPC)) was 6 of 6 and the survivor count [2] was 6 of 6.
With CCCC(=O)Nc1ccc(NS(C)(=O)=O)cc1OC the survivor count (dose: 400.0 mg/kg/injection, schedule: Q04DX003 (ip), vehicle: Klucel (hydroxypropylcellulose) (HPC)) was 0 of 6.
For CC(=O)OC1CC2CC1C1C3C=CC(C3)C21 (centres undefined), the survivor count [4] was 5 of 6 and the survivor count [5] was 2 of 6.
With CCOC(=O)c1ccc(NC(=O)Nc2nc(C)cs2)cc1 the T/C (dose: 50.0 mg/kg/injection, schedule: Q01DX009 (ip), vehicle: other) was 127 % of control, the survivor count (dose: 200.0 mg/kg/injection, schedule: Q01DX009 (ip), vehicle: other) was 6 of 6 and the survivor count (dose: 400.0 mg/kg/injection, schedule: Q01DX009 (ip), vehicle: other) was 2 of 6.
In the case of O=C1OC(c2ccccc2)(c2ccccc2)c2ccccc21, the T/C [7] is reported as 136 % of control and the survivor count [7] is reported as 6 of 6.
With CCCOP(=O)(OCCC)C(OC(=O)C(C)C)=C(C)C the survivor count [8] was 2 of 6.
With CCOC(=O)/C=C(\C)SC1=CC(=O)C=CC1=O the survivor count [1] was 3 of 6.
CC[N+](C)(C)c1ncnc2nc[nH]c12 was tested, and the survivor count (dose: 50.0 mg/kg/injection, schedule: Q01DX009 (ip), vehicle: saline) was 6 of 6 and the survivor count (dose: 400.0 mg/kg/injection, schedule: Q04DX003 (ip), vehicle: saline) was 1 of 6.
In the case of Cc1ccc(-c2nc3cc(Cl)ccc3c(=O)o2)cc1, the survivor count [8] is reported as 0 of 6.
With O=P(N1CCCCC1)(N1CC1)N1CC1 the T/C (dose: 5.0 mg/kg/injection, schedule: Q01DX009 (ip), vehicle: saline) was 134 % of control, the T/C (dose: 12.5 mg/kg/injection, schedule: Q04DX003 (ip), vehicle: saline) was 129 % of control and the survivor count [6] was 3 of 6.
In the case of CNc1c(F)c(C#N)c(F)c(F)c1C#N, the survivor count [3] is reported as 1 of 6 and the survivor count [4] is reported as 0 of 6.
COc1cc(O)c(Cc2ccccc2O)c(O)c1C(=O)CCc1ccccc1 was tested, and the T/C (dose: 1.0 mg/kg/injection, schedule: Q01DX009 (ip), vehicle: alcohol) was 130 % of control.
With Nc1ccc(CCc2ccccc2)cc1 the survivor count (dose: 115.0 mg/kg/injection, schedule: Q01DX009 (ip), vehicle: saline with Tween-80) was 6 of 6, the survivor count (dose: 170.0 mg/kg/injection, schedule: Q01DX009 (ip), vehicle: saline with Tween-80) was 0 of 6 and the survivor count (dose: 225.0 mg/kg/injection, schedule: Q04DX003 (ip), vehicle: saline with Tween-80) was 6 of 6.
